These are yes or no findings as the source states them, for the method shown. In cells and extracts the contact can be indirect. Some binding calls cover weakened binding; strength is not graded here.
Tests used:
[1] = biological target: TET1 (UniProt Q8NFU7); assay: co-immunoprecipitation from THP1 cells, Western blot
[2] = biological target: TET1 (UniProt Q8NFU7); assay: co-immunoprecipitation from HEK293T cells, Western blot
[3] = biological target: TET1 (UniProt Q8NFU7); assay: co-immunoprecipitation with anti-GFI1 antibody, Western blot

By UniProt entry, the sequences of proteins in these tests, tags left out.
UniProt Q8NFU7: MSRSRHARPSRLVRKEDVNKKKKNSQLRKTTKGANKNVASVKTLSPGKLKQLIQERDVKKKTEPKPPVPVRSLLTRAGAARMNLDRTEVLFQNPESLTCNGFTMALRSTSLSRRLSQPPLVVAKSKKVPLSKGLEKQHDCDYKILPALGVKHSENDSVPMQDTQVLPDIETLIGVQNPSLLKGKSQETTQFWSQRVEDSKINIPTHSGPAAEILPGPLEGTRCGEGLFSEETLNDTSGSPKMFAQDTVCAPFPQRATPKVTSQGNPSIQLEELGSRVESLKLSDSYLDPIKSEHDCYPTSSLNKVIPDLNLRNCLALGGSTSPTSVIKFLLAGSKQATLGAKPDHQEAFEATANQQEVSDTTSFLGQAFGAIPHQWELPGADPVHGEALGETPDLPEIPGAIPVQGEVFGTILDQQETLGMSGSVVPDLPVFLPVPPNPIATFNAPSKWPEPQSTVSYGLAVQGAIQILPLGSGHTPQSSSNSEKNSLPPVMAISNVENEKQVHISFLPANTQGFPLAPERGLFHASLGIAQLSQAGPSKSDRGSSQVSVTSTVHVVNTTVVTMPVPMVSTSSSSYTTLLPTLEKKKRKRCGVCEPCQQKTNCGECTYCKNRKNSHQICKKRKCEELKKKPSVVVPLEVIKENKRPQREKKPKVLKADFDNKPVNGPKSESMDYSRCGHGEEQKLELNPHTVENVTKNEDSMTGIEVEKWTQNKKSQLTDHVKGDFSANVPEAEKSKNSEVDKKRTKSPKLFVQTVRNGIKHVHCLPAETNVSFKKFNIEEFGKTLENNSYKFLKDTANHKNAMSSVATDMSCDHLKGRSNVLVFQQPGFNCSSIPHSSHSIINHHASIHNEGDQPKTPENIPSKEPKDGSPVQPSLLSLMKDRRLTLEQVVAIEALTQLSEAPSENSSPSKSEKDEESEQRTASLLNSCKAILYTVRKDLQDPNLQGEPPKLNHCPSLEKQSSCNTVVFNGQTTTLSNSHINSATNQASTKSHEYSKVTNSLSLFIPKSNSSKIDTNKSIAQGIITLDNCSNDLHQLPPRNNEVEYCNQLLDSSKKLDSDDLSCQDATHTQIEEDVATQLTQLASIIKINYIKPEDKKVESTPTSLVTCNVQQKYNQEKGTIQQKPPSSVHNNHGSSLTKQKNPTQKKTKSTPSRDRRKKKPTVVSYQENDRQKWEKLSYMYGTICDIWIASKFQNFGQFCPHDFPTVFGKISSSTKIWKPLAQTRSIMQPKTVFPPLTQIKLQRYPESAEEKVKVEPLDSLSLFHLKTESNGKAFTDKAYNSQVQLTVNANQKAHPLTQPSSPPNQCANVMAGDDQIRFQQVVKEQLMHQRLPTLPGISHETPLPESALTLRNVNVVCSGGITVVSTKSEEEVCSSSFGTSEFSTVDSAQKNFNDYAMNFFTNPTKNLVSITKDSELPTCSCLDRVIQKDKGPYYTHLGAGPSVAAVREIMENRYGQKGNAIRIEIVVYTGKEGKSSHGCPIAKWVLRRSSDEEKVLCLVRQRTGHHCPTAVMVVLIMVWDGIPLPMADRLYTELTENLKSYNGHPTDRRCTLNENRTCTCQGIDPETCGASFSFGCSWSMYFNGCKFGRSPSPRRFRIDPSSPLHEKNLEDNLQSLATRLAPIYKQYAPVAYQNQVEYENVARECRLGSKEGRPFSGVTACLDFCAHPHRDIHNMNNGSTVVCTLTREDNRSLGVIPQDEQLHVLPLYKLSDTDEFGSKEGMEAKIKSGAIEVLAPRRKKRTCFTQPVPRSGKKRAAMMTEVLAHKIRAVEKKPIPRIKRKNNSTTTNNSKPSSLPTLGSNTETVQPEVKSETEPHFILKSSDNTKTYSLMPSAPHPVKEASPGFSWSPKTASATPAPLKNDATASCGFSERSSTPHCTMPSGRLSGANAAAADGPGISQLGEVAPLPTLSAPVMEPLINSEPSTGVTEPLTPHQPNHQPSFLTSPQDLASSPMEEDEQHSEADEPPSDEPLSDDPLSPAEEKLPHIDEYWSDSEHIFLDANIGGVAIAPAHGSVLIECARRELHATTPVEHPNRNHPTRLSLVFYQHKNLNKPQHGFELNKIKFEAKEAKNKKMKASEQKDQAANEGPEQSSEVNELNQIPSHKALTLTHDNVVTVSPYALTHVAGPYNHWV
UniProt Q99684: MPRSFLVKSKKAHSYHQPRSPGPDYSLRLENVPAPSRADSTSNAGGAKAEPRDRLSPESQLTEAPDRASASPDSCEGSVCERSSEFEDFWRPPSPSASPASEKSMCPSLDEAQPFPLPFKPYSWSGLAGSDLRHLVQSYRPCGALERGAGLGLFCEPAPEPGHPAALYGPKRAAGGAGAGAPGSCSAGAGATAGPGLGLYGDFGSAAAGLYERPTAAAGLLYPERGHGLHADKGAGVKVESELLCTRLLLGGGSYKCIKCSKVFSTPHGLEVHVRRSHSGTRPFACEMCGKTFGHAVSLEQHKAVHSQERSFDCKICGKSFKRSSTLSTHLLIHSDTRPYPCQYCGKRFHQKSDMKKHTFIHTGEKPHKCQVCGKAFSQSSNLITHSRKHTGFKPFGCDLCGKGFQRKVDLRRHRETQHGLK

- binding [1]: binds
- binding [2]: binds
- binding [3]: binds
Substance: GFI1 (from UniProt Q99684 1-422)
